Source: PubChem BioAssay AID1259308 (NCATS, 2017)

Screen: 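Genes whose loss raises luciferase production in HEK293 cells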 (primary screen)
Cell system: human HEK293 embryonic kidney cells stably expressing firefly luciferase (HEK-CMV-Luc2-Hygro)
Knock-down reagent: single siRNA against human genes, 0.8 pmol siRNA per well
Duration: 72 h
Detection: 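Luciferase light (ONE-Glo) measured on one replicate plate set and viability (CellTiter-Glo) on the other, scaled to a negative control siRNA, with robust z-scores and luciferase per cell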
Direction: total luciferase, z-score and total luciferase, % of control: higher = more reporter protein produced
Active means: 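Active when the median/MAD z-score for overall luciferase is greater than 3; a gene was taken forward for validation with new siRNAs if at least two of its three siRNAs passed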
Calls: active = raised luciferase; inactive = no rise
Shown is one part, drawn at random, of about 59,000 reagents tested. Of all reagents, about 1,510 (2.6%) got an active call. 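Calls use total luciferase alone and ignore viability, so some active siRNAs may act by altering cell number.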 Reagents against one gene are numbered here. Further read-outs or replicates are left out here. No sequences are given here.

ZNG1A (Zn regulated GTPase metalloprotein activator 1A) #1
- total luciferase, z-score: 2.22
- total luciferase, % of control: 126
- Call: inactive

ZNG1A (Zn regulated GTPase metalloprotein activator 1A) #2
- total luciferase, z-score: 0.0584
- total luciferase, % of control: 83
- Call: inactive

ZNG1A (Zn regulated GTPase metalloprotein activator 1A) #3
- total luciferase, z-score: 0.39
- total luciferase, % of control: 89.6
- Call: inactive

COX7B (cytochrome c oxidase subunit 7B) #1
- total luciferase, z-score: -1.43
- total luciferase, % of control: 53.4
- Call: inactive

COX7B (cytochrome c oxidase subunit 7B) #2
- total luciferase, z-score: -2.44
- total luciferase, % of control: 33.3
- Call: inactive

COX7B (cytochrome c oxidase subunit 7B) #3
- total luciferase, z-score: -0.714
- total luciferase, % of control: 67.7
- Call: inactive

PGAM1 (phosphoglycerate mutase 1) #1
- total luciferase, z-score: -0.578
- total luciferase, % of control: 70.4
- Call: inactive

PGAM1 (phosphoglycerate mutase 1) #2
- total luciferase, z-score: 0.0769
- total luciferase, % of control: 83.4
- Call: inactive

PGAM1 (phosphoglycerate mutase 1) #3
- total luciferase, z-score: -1.3
- total luciferase, % of control: 56.1
- Call: inactive

OXT (oxytocin/neurophysin I prepropeptide) #1
- total luciferase, z-score: 1.13
- total luciferase, % of control: 104
- Call: inactive

OXT (oxytocin/neurophysin I prepropeptide) #2
- total luciferase, z-score: -0.213
- total luciferase, % of control: 77.6
- Call: inactive

OXT (oxytocin/neurophysin I prepropeptide) #3
- total luciferase, z-score: 1.14
- total luciferase, % of control: 105
- Call: inactive

JAML (junction adhesion molecule like) #1
- total luciferase, z-score: 0.949
- total luciferase, % of control: 101
- Call: inactive

JAML (junction adhesion molecule like) #2
- total luciferase, z-score: 0.418
- total luciferase, % of control: 90.2
- Call: inactive

JAML (junction adhesion molecule like) #3
- total luciferase, z-score: 0.11
- total luciferase, % of control: 84.1
- Call: inactive

Reformatted: entries from further up.
{"Gene": "PGAM1 (phosphoglycerate mutase 1)", "siRNA no.": 3, "total luciferase, z-score": -1.3, "total luciferase, % of control": 56.1, "Call": "inactive"}
{"Gene": "OXT (oxytocin/neurophysin I prepropeptide)", "siRNA no.": 1, "total luciferase, z-score": 1.13, "total luciferase, % of control": 104, "Call": "inactive"}
{"Gene": "OXT (oxytocin/neurophysin I prepropeptide)", "siRNA no.": 2, "total luciferase, z-score": -0.213, "total luciferase, % of control": 77.6, "Call": "inactive"}

The results go on:
TRNAU1AP (tRNA selenocysteine 1 associated protein 1) #1
- total luciferase, z-score: 0.0404
- total luciferase, % of control: 82.7
- Call: inactive

TRNAU1AP (tRNA selenocysteine 1 associated protein 1) #2
- total luciferase, z-score: 0.212
- total luciferase, % of control: 86.1
- Call: inactive

TRNAU1AP (tRNA selenocysteine 1 associated protein 1) #3
- total luciferase, z-score: -1.33
- total luciferase, % of control: 55.5
- Call: inactive

GPAT3 (glycerol-3-phosphate acyltransferase 3) #1
- total luciferase, z-score: -0.633
- total luciferase, % of control: 69.3
- Call: inactive

GPAT3 (glycerol-3-phosphate acyltransferase 3) #2
- total luciferase, z-score: -0.17
- total luciferase, % of control: 78.5
- Call: inactive

GPAT3 (glycerol-3-phosphate acyltransferase 3) #3
- total luciferase, z-score: 0.852
- total luciferase, % of control: 98.8
- Call: inactive

RPL10P8 (ribosomal protein L10 pseudogene 8) #1
- total luciferase, z-score: -1
- total luciferase, % of control: 62
- Call: inactive

RPL10P8 (ribosomal protein L10 pseudogene 8) #2
- total luciferase, z-score: 0.038
- total luciferase, % of control: 82.6
- Call: inactive

RPL10P8 (ribosomal protein L10 pseudogene 8) #3
- total luciferase, z-score: 1.75
- total luciferase, % of control: 117
- Call: inactive

RSPO1 (R-spondin 1) #1
- total luciferase, z-score: -0.111
- total luciferase, % of control: 79.7
- Call: inactive

RSPO1 (R-spondin 1) #2
- total luciferase, z-score: -0.5
- total luciferase, % of control: 71.9
- Call: inactive

RSPO1 (R-spondin 1) #3
- total luciferase, z-score: -0.205
- total luciferase, % of control: 77.8
- Call: inactive

ZNF232 (zinc finger protein 232) #1
- total luciferase, z-score: -0.715
- total luciferase, % of control: 67.7
- Call: inactive

ZNF232 (zinc finger protein 232) #2
- total luciferase, z-score: 0.195
- total luciferase, % of control: 85.8
- Call: inactive

ZNF232 (zinc finger protein 232) #3
- total luciferase, z-score: 1.8
- total luciferase, % of control: 118
- Call: inactive

HLA-DPB1 (major histocompatibility complex, class II, DP beta 1) #1
- total luciferase, z-score: 0.451
- total luciferase, % of control: 90.8
- Call: inactive

HLA-DPB1 (major histocompatibility complex, class II, DP beta 1) #2
- total luciferase, z-score: 0.527
- total luciferase, % of control: 92.4
- Call: inactive

HLA-DPB1 (major histocompatibility complex, class II, DP beta 1) #3
- total luciferase, z-score: 0.853
- total luciferase, % of control: 98.8
- Call: inactive
